In patent publication US12099061B2, “Nidogen 1 as a diagnostic marker and therapeutic target of hepatocellular carcinoma, composition and methods thereof” (THE UNIVERSITY OF HONG KONG, priority 2020, dated 2024):
“Also recorded” adds a separate entry of the source. For at least one compound, name, drawing or mass did not settle the structure.

Key:
MHCC97L cells [1] = experiment: Orthotopic liver injection of Tipifarnib-pretreated MHCC97L cells, liver tumor formation; format: in vivo, BALB/cAnN-nu mice; conditions: MHCC97L cells pretreated 48 hr with Tipifarnib (1 μM), tumor volume after 6 weeks
MHCC97L cells [2] = experiment: EV secretion of MHCC97L cells treated with Tipifarnib; format: cell-based, human; conditions: HCC cells treated with tipifarnib
Method: FIGS. 11A-11B Reduction of EV secretion attenuates liver tumor formation. (A) Quantification of EVs isolated from conditioned medium of MHCC97L treated with 1 μM Tipifarnib or DMSO vehicle for 48 hr. The analysis was done in triplicate. (B) Image of dissected liver of mice subjected to orthotopic liver injection of Matrigel/MHCC97L (1×10^6 cells/injection) pretreated with 48-hr DMSO or Tipifarnib (1 μM) (n=6). Measurement of tumor volume is shown. Data are represented as mean±SEM. *P<0.05 and ***P<0.001 from Student's t test.
Protein lysates were obtained by cell lysis with NETN lysis buffer (0.1% NP40, 25 mM Tris-HCl, 50 mM […], 0.2 mM EDTA), supplemented with 10% cOmplete™ protease inhibitor cocktail and 10% PhosStop phosphatase inhibitor cocktail (Roche Applied Science). Bradford reagent (Bio-Rad Corporation) using bovine serum albumin as standard concentration was used to quantify protein amount. […] Chemiluminescent signals were detected by ECL™ Western Blotting Detection Reagents (Amersham). […] The level of EV-CD63 was expressed as amount of CD63 over EV protein amount (μg/μg) (w/w). […] The amount of isolated EVs was quantified. […] After 6 weeks post injection, mice were sacrificed and liver tumor volume was measured using a caliper and calculated using the formula: volume=L×W^2×0.5 (L, the largest diameter; W, the smallest diameter). […]

With Cn1cncc1[C@@](N)(c1ccc(Cl)cc1)c1ccc2c(c1)c(-c1cccc(Cl)c1)cc(=O)n2C [tipifarnib, Tipifarnib] the liver tumor development (MHCC97L cells [1]) was “significant delay in tumor development; also recorded: smaller tumors” and the “EV secretion in vitro” value (MHCC97L cells [2]) was “reduced EV secretion”.
